{"sequences": {"note": "Chains of the proteins cited; added tags and fusions are not shown.", "UniProt O15392": "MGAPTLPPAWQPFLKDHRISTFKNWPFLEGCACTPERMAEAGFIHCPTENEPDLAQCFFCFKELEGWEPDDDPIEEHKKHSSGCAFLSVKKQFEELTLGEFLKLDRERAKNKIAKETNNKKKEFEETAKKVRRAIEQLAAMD"}, "source": "paper PMC10391610", "about": "“Survivin prevents the polycomb repressor complex 2 from methylating histone 3 lysine 27” (iScience, 2023)", "binders": {"B1": {"name": "EZH2_(172-211) peptide (peptide)", "peptide": "VELVNALGQYNDDDDDDDGDDPEEREEKQKDLEDHRDDKE"}}, "target": "survivin (His-tagged, from pHIS8) (human) (UniProt O15392)", "test": "BLI; reverse experiment: survivin (2.5 μM) immobilised on AR2G biosensors; EZH2 peptide as analyte at 21.2 μM, 2.12 μM, 212 nM, 21.2 nM; survivin SEC buffer; 30°C; Bayesian 1:1 model, apparent dissociation constant; both purified", "note": "These are yes or no findings as the source states them, for the method shown. Some results given as binding are weak or reduced against the parent protein; the word gives no strength."}
{"binder": "B1", "values": [{"measurement": "binding", "result": "binds"}]}
